Values from PubChem BioAssay AID652272 (Drosophila RNAi Screening Center, 2013).
The deposit covers about 21,000 reagents; below is a random part of those that have a named target and a result. Over the whole deposit, 503 (2.4%) are marked active. 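Raw plate light values, not normalised; calls rest on replicate z-scores that were not deposited; hits include reporter decreases as well as increases.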 Reagents against one gene are numbered here. The record does not give: the amount of reagent, the time to read-out.

Screen: 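Finding fly genes that regulate Hedgehog signal transduction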 (primary screen)
System: Drosophila clone 8 (Cl8) cells
Reagents: long dsRNA against Drosophila genes
Measured: 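Plate reader light from a firefly reporter under a ptc promoter fragment that responds to Hedgehog, with Renilla light as transfection reference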
Reading the numbers: firefly Hh reporter signal: higher = more ptc reporter light; Renilla reference signal: higher = more Renilla control light
Rule for the call: 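Called a hit if the two-replicate mean z-score lies below -2 or above +3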
Calls: active = hit: reporter lowered or raised; inactive = not a hit

Ir94a (Ionotropic receptor 94a) — firefly Hh reporter signal, replicate 1: 50900; firefly Hh reporter signal, replicate 2: 1.80e5; Renilla reference signal, replicate 1: 10392; Renilla reference signal, replicate 2: 3813; activity call: inactive
CG9568 — firefly Hh reporter signal, replicate 1: 1.15e5; firefly Hh reporter signal, replicate 2: 4.47e5; firefly Hh reporter signal, replicate 3: 67607; Renilla reference signal, replicate 1: 2978; Renilla reference signal, replicate 2: 26960; activity call: inactive
C901 — firefly Hh reporter signal, replicate 1: 76280; firefly Hh reporter signal, replicate 2: 2.11e5; Renilla reference signal, replicate 1: 2481; Renilla reference signal, replicate 2: 8176; activity call: inactive
mRpL2 (mitochondrial ribosomal protein L2) — firefly Hh reporter signal, replicate 1: 39462; firefly Hh reporter signal, replicate 2: 36388; firefly Hh reporter signal, replicate 3: 35802; Renilla reference signal, replicate 1: 4807; Renilla reference signal, replicate 2: 2528; activity call: inactive
CG15343 — firefly Hh reporter signal, replicate 1: 1.01e5; firefly Hh reporter signal, replicate 2: 4.00e5; Renilla reference signal, replicate 1: 2774; Renilla reference signal, replicate 2: 13632; activity call: inactive
clos (closca) #1 — firefly Hh reporter signal, replicate 1: 1.07e5; firefly Hh reporter signal, replicate 2: 65897; Renilla reference signal, replicate 1: 2918; Renilla reference signal, replicate 2: 5154; activity call: inactive
clos (closca) #2 — firefly Hh reporter signal, replicate 1: 1.49e5; firefly Hh reporter signal, replicate 2: 84156; Renilla reference signal, replicate 1: 3803; Renilla reference signal, replicate 2: 6330; activity call: inactive
clos (closca) #3 — firefly Hh reporter signal, replicate 1: 1.02e5; firefly Hh reporter signal, replicate 2: 38024; Renilla reference signal, replicate 1: 2692; Renilla reference signal, replicate 2: 2656; activity call: inactive

2 entries from above, sorted by “firefly Hh reporter signal, replicate 1”, high to low:
CG15343 — firefly Hh reporter signal, replicate 1: 1.01e5; firefly Hh reporter signal, replicate 2: 4.00e5; Renilla reference signal, replicate 1: 2774; Renilla reference signal, replicate 2: 13632; activity call: inactive
mRpL2 (mitochondrial ribosomal protein L2) — firefly Hh reporter signal, replicate 1: 39462; firefly Hh reporter signal, replicate 2: 36388; firefly Hh reporter signal, replicate 3: 35802; Renilla reference signal, replicate 1: 4807; Renilla reference signal, replicate 2: 2528; activity call: inactive

Next entries follow.
BOD1 (Biorientation Defective 1) — firefly Hh reporter signal, replicate 1: 1.15e5; firefly Hh reporter signal, replicate 2: 94304; Renilla reference signal, replicate 1: 1905; Renilla reference signal, replicate 2: 2060; activity call: inactive
CG15237 — firefly Hh reporter signal, replicate 1: 1.26e5; firefly Hh reporter signal, replicate 2: 52416; Renilla reference signal, replicate 1: 3474; Renilla reference signal, replicate 2: 4628; activity call: inactive
Burs (Bursicon) — firefly Hh reporter signal, replicate 1: 8.50e5; firefly Hh reporter signal, replicate 2: 1.69e5; Renilla reference signal, replicate 1: 40640; Renilla reference signal, replicate 2: 3040; activity call: inactive
beat-Vc (beaten path Vc) #1 — firefly Hh reporter signal, replicate 1: 36572; firefly Hh reporter signal, replicate 2: 1.84e5; Renilla reference signal, replicate 1: 3019; Renilla reference signal, replicate 2: 2902; activity call: inactive
beat-Vc (beaten path Vc) #2 — firefly Hh reporter signal, replicate 1: 1.16e5; firefly Hh reporter signal, replicate 2: 1.10e5; Renilla reference signal, replicate 1: 4503; Renilla reference signal, replicate 2: 2163; activity call: inactive
CG17744 — firefly Hh reporter signal, replicate 1: 77376; firefly Hh reporter signal, replicate 2: 87510; Renilla reference signal, replicate 1: 7368; Renilla reference signal, replicate 2: 5952; activity call: inactive
